Data taken from patent US11572384B2 (FORSCHUNGSVERBUND BERLIN E.V., priority 2016, dated 2023).

Test: general procedure: Fmoc solid-phase peptide synthesis; Fmoc-L-Glu(tBu)-Wang resin (subst: 0.58 mmol/g); HOBt/HBTU/DIPEA
Conditions: whole synthesis, scale 0.1 mmol

With CF-Tub-Tag the isolated mass was 16 mg and the isolated yield was 8%.
